Laboratory results from patent US10869850B2, “Nitrated-fatty acids modulation of type II diabetes” (University of Pittsburgh—Of the Commonwealth System of …, priority 2007, dated 2020).
At least one compound was matched to its structure with a doubt left.

Assays:
Format in all cases: in vivo, mouse
[1] = system: WT mice; experiment: insulin sensitivity in WT mice (FIG. 5)
[2] = system: ob/ob mice; experiment: blood glucose levels in leptin-deficient diabetic ob/ob mice (FIG. 3); conditions: over the course of the study
Description: In a related vein, the invention encompasses a method for gauging the therapeutic efficacy of the composition as described above. This method involves obtaining at least two blood samples from a subject at different times during treatment and measuring the level of blood glucose in each sample.

[3] = system: ob/ob mice; experiment: insulin sensitivity in ob/ob mice (FIG. 6)

`CN(CCOc1ccc(CC2SC(=O)NC2=O)cc1)c1ccccn1` (stereo not shown) [Rosiglitazone, reference compound] was tested, and the “blood glucose levels after administration of insulin” value [1] was “initial drop in blood glucose levels followed by an elevation to normal levels”, the blood glucose levels [2] was “effective in reducing blood glucose levels” and the insulin sensitivity [3] was “fails to do so”. The “blood glucose levels after administration of insulin” value ([3]; FIG. 6) was “unchanged upon administration of insulin”.
